# Test results reported in the supplement of paper PMC7125110.
# ± gives the standard error. Many entries were measured with a wide error.
# B1: glmS ribozyme (parent)
# chain: AUAAAAGCGCCAGAACUACAGAAAUGUAGUUGACGAGGAGGAGGUUUAUCGAAUUUUCGGCGGAUGCCUCCAAA
# Variants of: B1
# Experiment: self-cleavage kobs at 160 uM GlcN6P; higher = faster cleavage; RNA array
# Conditions: with glucosamine-6-phosphate
# Summary of the method: (§1)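 Tiles of sequenced MiSeq chips were imaged over ~14 h at 37 °C. On them, barcoded ribozyme variants had been transcribed in situ by E. coli RNA polymerase and were tracked via a hybridised Cy3 probe while glucosamine-6-phosphate (40 μM to 10 mM) in HEPES/KCl/Mg(OAc)2 buffer flowed in. Per-tile medians, normalised to baseline and to non-cleaving reference variants, were fit to one- or two-exponential decays for kobs, and weighted Michaelis–Menten fits gave kcat and KM.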
row,Variant,self-cleavage kobs at 160 uM GlcN6P [s⁻¹]
1,U31C U46A,2.28e-05 ± 1.6e-05
2,A53C U69G,3.94e-05 ± 3.6e-05
3,G13A U30C,2.77e-05 ± 2.7e-05
4,G44U U55G,3.4e-05 ± 2.2e-05
5,C50G G66U,0.000173 ± 9.3e-05
6,G59C A64G C67A,0.00197 ± 0.0012
7,G37A A53C,1.91e-05 ± 1.2e-05
8,C11A U30G U54G,2.73e-05 ± 1.7e-05
9,G29A U46C,2.27e-05 ± 2.1e-05
10,G13U U47G,2.37e-05 ± 1.2e-05
11,C8U C10U C58G G60A,7.44e-05 ± 4e-05
12,G38U U49A A53C C70G,2.74e-05 ± 2.1e-05
13,C50A A53C U57G C58G,4.93e-05 ± 2.7e-05
14,A33G C67G,1.91e-05 ± 1.8e-05
15,A39U C68G,2.1e-05 ± 1.3e-05
16,U57A C70G,2.33e-05 ± 1.3e-05
17,G13A C67G C68U,3.68e-05 ± 2e-05

# Another view of some results above:
row | Variant | self-cleavage kobs at 160 uM GlcN6P [s⁻¹]
1 | U31C U46A | 2.28e-05 ± 1.6e-05
2 | A53C U69G | 3.94e-05 ± 3.6e-05
3 | G13A U30C | 2.77e-05 ± 2.7e-05
4 | G44U U55G | 3.4e-05 ± 2.2e-05
5 | C50G G66U | 0.000173 ± 9.3e-05
6 | G59C A64G C67A | 0.00197 ± 0.0012

# (listing goes on)

row,Variant,self-cleavage kobs at 160 uM GlcN6P [s⁻¹]
1,A12U C50U C67G,2.97e-05 ± 2.5e-05
2,U69G C71A,1.97e-05 ± 1.9e-05
3,C50U C68A,2.51e-05 ± 2e-05
4,A15G C58A U69G,4.39e-05 ± 3.4e-05
5,C8U G13A G35A G38A G63A C68U,2.81e-05 ± 2.5e-05
6,A14G A64U,1.83e-05 ± 1.5e-05
7,A14G A64C,2.87e-05 ± 1.8e-05
8,A15C C58A C67G C71G,3.27e-05 ± 2.2e-05
9,G51U C70G,2.28e-05 ± 1.2e-05
10,C61A C68G,1.83e-05 ± 1.7e-05
11,A15G U30A C67A C70U,0.00013 ± 7.1e-05
12,G32U A53G G59C A64G,4.19e-05 ± 3.4e-05
13,A12C G32A,1.51e-05 ± 1.5e-05
14,U30G G66U,3.71e-05 ± 2.3e-05
15,C58U U69A,2.41e-05 ± 1.9e-05
16,A6G U65G,1.38e-05 ± 1.3e-05

# Variants of: B1
# Experiment: self-cleavage kobs at 2500 uM GlcN6P; higher = faster cleavage; RNA array
# Conditions: with glucosamine-6-phosphate
# Summary of the method: as §1
row,Variant,self-cleavage kobs at 2500 uM GlcN6P [s⁻¹]
1,C11G C61U G63A U69A,2.81e-05 ± 2.6e-05
2,A12U G44U A52G,2.7e-05 ± 1.4e-05
3,G13A G51A C70A,3.39e-05 ± 2.4e-05
4,A14G A48U C70A,4.6e-05 ± 2.5e-05
5,A12G U31C C50A G60A C68A,2.84e-05 ± 1.6e-05
6,C8U A33G G38A G59A C70G,4.19e-05 ± 2.5e-05
7,C11A U54A C68U,4.31e-05 ± 2.4e-05
8,A15C C68A,3.46e-05 ± 1.8e-05
9,A6C C67A,2.36e-05 ± 1.7e-05
10,C10U C58G C67A,6.4e-05 ± 3.8e-05
11,G7A G13A U30A U31G C50A C68G,2.95e-05 ± 2.8e-05
12,A12C G29A G41U,4.67e-05 ± 3.1e-05
13,A14C C34G U49A C70G,3.14e-05 ± 1.8e-05
14,A14G G29U G44U C67G,0.00265 ± 0.0018
15,C11U G13A U45A,3.48e-05 ± 2e-05
16,A14U G29C,1.87e-05 ± 1.6e-05
17,G13A C67G C68U,4.76e-05 ± 2.4e-05
18,C10U C68U,1.83e-05 ± 1.1e-05
19,A6C A15G U56A,2.51e-05 ± 1.8e-05
20,U69G C71A,2.09e-05 ± 1.9e-05
21,C10A G60A C70A,3.99e-05 ± 2.6e-05
22,A12C A14U C16U U46G,2.8e-05 ± 2.3e-05

row,Variant,self-cleavage kobs at 2500 uM GlcN6P [s⁻¹]
1,A12G U31A C71A,2.64e-05 ± 1.6e-05
2,C10A G35A A42U U57G,0.000153 ± 8.9e-05
3,A15C C58A C67G C71G,3.79e-05 ± 2.6e-05
4,A14U G66C C68A,3.33e-05 ± 2.6e-05
5,A14G C70U,0.0417 ± 0.024
6,C61A C68G,1.76e-05 ± 1.6e-05
7,G13C G51A U69G,0.0027 ± 0.0021
8,G7C C34A A48G U56G C71U,< 1e-05
9,G59U C68G,2.42e-05 ± 1.4e-05
10,G63A U69A,4.39e-05 ± 2.7e-05
11,G13C G59C U69A,4.29e-05 ± 3.5e-05
12,A6U A15G G62U U69G,3.71e-05 ± 3.6e-05
13,G13C C70G,2.83e-05 ± 1.5e-05
14,A12G G13C U54C,2.53e-05 ± 2.5e-05
15,C11G G13U C50G G60U C61G,4.31e-05 ± 2.7e-05
16,C11G A15U U54A C70A,4.07e-05 ± 2.6e-05
17,G9A C50G,5.31e-05 ± 3.9e-05
18,A12U C16U U54A,0.0246 ± 0.013
19,A12U A14G C16G,0.000356 ± 0.00025
20,A14C U47A C58G C67G U69C,5e-05 ± 3.3e-05
21,C58U U69A,3.95e-05 ± 2e-05
22,A14U U47G U55G C61A,4.69e-05 ± 2.9e-05

# Variants of: B1
# Experiment: self-cleavage kobs at 10000 uM GlcN6P; higher = faster cleavage; RNA array
# Conditions: with glucosamine-6-phosphate
# Summary of the method: as §1
row,Variant,self-cleavage kobs at 10000 uM GlcN6P [s⁻¹]
1,A53C U69G,2.18e-05 ± 1.2e-05
2,C50A A53C U57G C58G,2.51e-05 ± 1.9e-05
3,U57A C70G,1.59e-05 ± 1.2e-05
4,A12U A14G C16G,0.107 ± 0.098
5,C58U U69A,1.53e-05 ± 1.4e-05

# Variants of: B1
# Experiment: self-cleavage kobs at 640 uM GlcN6P; higher = faster cleavage; RNA array
# Conditions: with glucosamine-6-phosphate
# Summary of the method: as §1
row,Variant,self-cleavage kobs at 640 uM GlcN6P [s⁻¹]
1,U65C C67U,2.16e-05 ± 1.4e-05
2,C61A C68G,2.36e-05 ± 1.7e-05
3,G59U C68G,2.75e-05 ± 1.5e-05
4,G59C C67U,0.00252 ± 0.0018
5,G63A U69A,2.87e-05 ± 2.5e-05
6,G59U G66A C70G,2.99e-05 ± 2.5e-05
7,A64C C71U,2.14e-05 ± 1.1e-05
